Measured values as given in article PMC6377711.
Results are given in words; binding and its absence hold for the method and conditions named. In cells and extracts the contact can be indirect. Some results given as binding are weak or reduced against the parent protein; the word gives no strength. For some assays here: Sequences can lack the tags named with a protein. Each block holds one molecule with its values, some of them ahead of it.

Sequences of proteins named here, by UniProt entry; tags and fusion partners are left off.
UniProt Q676U5: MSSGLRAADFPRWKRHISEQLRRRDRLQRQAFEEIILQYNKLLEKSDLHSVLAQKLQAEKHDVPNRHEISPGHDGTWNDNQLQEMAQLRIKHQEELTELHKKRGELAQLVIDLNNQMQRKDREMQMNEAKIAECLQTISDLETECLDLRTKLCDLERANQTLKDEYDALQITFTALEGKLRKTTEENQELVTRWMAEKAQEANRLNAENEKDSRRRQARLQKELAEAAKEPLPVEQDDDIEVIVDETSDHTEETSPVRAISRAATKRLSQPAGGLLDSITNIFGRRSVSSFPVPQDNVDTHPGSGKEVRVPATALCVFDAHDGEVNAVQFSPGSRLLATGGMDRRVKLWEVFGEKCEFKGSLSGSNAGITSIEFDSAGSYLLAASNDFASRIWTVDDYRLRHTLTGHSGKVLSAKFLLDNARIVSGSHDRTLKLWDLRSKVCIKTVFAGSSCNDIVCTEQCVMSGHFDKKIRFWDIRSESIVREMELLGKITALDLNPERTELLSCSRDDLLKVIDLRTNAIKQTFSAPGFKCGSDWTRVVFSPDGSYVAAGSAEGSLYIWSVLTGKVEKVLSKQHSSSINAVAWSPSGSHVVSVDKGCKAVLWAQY
UniProt Q8C0J2: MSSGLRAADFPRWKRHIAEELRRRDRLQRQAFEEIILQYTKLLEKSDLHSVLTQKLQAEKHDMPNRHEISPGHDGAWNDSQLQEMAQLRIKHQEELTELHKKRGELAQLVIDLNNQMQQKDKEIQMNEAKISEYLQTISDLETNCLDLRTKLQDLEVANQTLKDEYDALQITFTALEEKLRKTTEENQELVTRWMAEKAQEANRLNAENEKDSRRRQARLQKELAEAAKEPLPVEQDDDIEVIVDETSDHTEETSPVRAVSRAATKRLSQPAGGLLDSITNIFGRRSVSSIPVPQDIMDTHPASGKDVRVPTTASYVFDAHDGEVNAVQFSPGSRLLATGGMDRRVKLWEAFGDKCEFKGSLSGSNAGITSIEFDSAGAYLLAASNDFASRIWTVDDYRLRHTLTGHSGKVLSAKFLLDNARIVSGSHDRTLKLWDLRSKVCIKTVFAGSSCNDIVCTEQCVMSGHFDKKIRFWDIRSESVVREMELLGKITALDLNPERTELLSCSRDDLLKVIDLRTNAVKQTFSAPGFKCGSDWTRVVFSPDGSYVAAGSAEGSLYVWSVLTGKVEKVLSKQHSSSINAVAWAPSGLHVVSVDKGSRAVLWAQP

Experiments:
[1] = biological target: T1, Flag-tagged Gigaxonin (human, full-length) (human) (UniProt Q9H2C0); assay: proximity ligation; Duolink in situ PLA on fixed transfected COS-7 cells; anti-mouse minus and anti-rabbit plus probes; details and controls in Supplementary Fig. 1a, b
T1 sequence: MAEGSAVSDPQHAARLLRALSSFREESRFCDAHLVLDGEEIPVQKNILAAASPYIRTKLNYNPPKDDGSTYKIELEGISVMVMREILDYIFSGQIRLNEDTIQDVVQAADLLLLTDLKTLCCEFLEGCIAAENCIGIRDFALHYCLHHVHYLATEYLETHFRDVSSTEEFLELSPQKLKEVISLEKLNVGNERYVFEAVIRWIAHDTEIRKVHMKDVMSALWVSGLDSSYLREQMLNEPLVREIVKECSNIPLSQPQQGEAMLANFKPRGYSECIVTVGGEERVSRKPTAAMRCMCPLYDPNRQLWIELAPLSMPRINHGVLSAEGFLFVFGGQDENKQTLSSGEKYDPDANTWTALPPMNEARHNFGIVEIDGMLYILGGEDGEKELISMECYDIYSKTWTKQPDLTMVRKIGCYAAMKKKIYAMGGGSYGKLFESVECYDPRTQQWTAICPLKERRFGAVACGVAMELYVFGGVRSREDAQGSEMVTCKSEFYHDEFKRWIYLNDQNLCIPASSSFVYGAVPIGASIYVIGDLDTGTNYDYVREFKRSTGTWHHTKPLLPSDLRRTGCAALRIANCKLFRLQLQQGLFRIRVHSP

[2] = biological target: T1, Flag-tagged Gigaxonin (human, full-length) (human); assay: co-IP; COS-7 cells transiently transfected and treated with MG132; anti-Flag or anti-Cherry antibodies on Dynabeads Protein G incubated with 500 µg of lysate protein for 2 h at room temperature in PBS tween 0.02%; immunoblot with Cherry/Flag antibodies; normal mouse IgG as negative control
[3] = biological target: Cherry-ATG16L1 (human) (human) (UniProt Q676U5); assay: as above
[4] = biological target: ATG16L1 fused to the N-terminal region of YFP (BiFC construct) (human) (UniProt Q676U5); assay: split reporter; BiFC in live transfected COS-7 cells ± MG132; ATG16L1 fused to YFPN (1-154aa) and Gigaxonin fused to YFPC (155-239aa)
[5] = biological target: Flag-ATG16L1 full-length (mouse) (mouse) (UniProt Q8C0J2); assay: co-IP; COS-7 cells transiently transfected and treated with MG132; anti-Flag or anti-Cherry antibodies on Dynabeads Protein G incubated with 500 µg of lysate protein for 2 h at room temperature in PBS tween 0.02%; immunoblot with Cherry/Flag antibodies; normal mouse IgG as negative control

binding [4]: binds
B2: Gigaxonin fused to the C-terminal region of YFP (BiFC construct) (protein, UniProt Q9H2C0 1-597)
chain: MAEGSAVSDPQHAARLLRALSSFREESRFCDAHLVLDGEEIPVQKNILAAASPYIRTKLNYNPPKDDGSTYKIELEGISVMVMREILDYIFSGQIRLNEDTIQDVVQAADLLLLTDLKTLCCEFLEGCIAAENCIGIRDFALHYCLHHVHYLATEYLETHFRDVSSTEEFLELSPQKLKEVISLEKLNVGNERYVFEAVIRWIAHDTEIRKVHMKDVMSALWVSGLDSSYLREQMLNEPLVREIVKECSNIPLSQPQQGEAMLANFKPRGYSECIVTVGGEERVSRKPTAAMRCMCPLYDPNRQLWIELAPLSMPRINHGVLSAEGFLFVFGGQDENKQTLSSGEKYDPDANTWTALPPMNEARHNFGIVEIDGMLYILGGEDGEKELISMECYDIYSKTWTKQPDLTMVRKIGCYAAMKKKIYAMGGGSYGKLFESVECYDPRTQQWTAICPLKERRFGAVACGVAMELYVFGGVRSREDAQGSEMVTCKSEFYHDEFKRWIYLNDQNLCIPASSSFVYGAVPIGASIYVIGDLDTGTNYDYVREFKRSTGTWHHTKPLLPSDLRRTGCAALRIANCKLFRLQLQQGLFRIRVHSP

binding [5]: binds
B3: Cherry-Gigaxonin (human, full-length) (protein, UniProt Q9H2C0 1-597)
chain: MAEGSAVSDPQHAARLLRALSSFREESRFCDAHLVLDGEEIPVQKNILAAASPYIRTKLNYNPPKDDGSTYKIELEGISVMVMREILDYIFSGQIRLNEDTIQDVVQAADLLLLTDLKTLCCEFLEGCIAAENCIGIRDFALHYCLHHVHYLATEYLETHFRDVSSTEEFLELSPQKLKEVISLEKLNVGNERYVFEAVIRWIAHDTEIRKVHMKDVMSALWVSGLDSSYLREQMLNEPLVREIVKECSNIPLSQPQQGEAMLANFKPRGYSECIVTVGGEERVSRKPTAAMRCMCPLYDPNRQLWIELAPLSMPRINHGVLSAEGFLFVFGGQDENKQTLSSGEKYDPDANTWTALPPMNEARHNFGIVEIDGMLYILGGEDGEKELISMECYDIYSKTWTKQPDLTMVRKIGCYAAMKKKIYAMGGGSYGKLFESVECYDPRTQQWTAICPLKERRFGAVACGVAMELYVFGGVRSREDAQGSEMVTCKSEFYHDEFKRWIYLNDQNLCIPASSSFVYGAVPIGASIYVIGDLDTGTNYDYVREFKRSTGTWHHTKPLLPSDLRRTGCAALRIANCKLFRLQLQQGLFRIRVHSP

The remaining lines, values behind:

Molecule: Cherry-ATG16L1 (human) (from UniProt Q676U5 1-607)
binding [1]: binds
binding [2]: binds

B1: Flag-tagged Gigaxonin (human, full-length) (protein, UniProt Q9H2C0 1-597)
chain: MAEGSAVSDPQHAARLLRALSSFREESRFCDAHLVLDGEEIPVQKNILAAASPYIRTKLNYNPPKDDGSTYKIELEGISVMVMREILDYIFSGQIRLNEDTIQDVVQAADLLLLTDLKTLCCEFLEGCIAAENCIGIRDFALHYCLHHVHYLATEYLETHFRDVSSTEEFLELSPQKLKEVISLEKLNVGNERYVFEAVIRWIAHDTEIRKVHMKDVMSALWVSGLDSSYLREQMLNEPLVREIVKECSNIPLSQPQQGEAMLANFKPRGYSECIVTVGGEERVSRKPTAAMRCMCPLYDPNRQLWIELAPLSMPRINHGVLSAEGFLFVFGGQDENKQTLSSGEKYDPDANTWTALPPMNEARHNFGIVEIDGMLYILGGEDGEKELISMECYDIYSKTWTKQPDLTMVRKIGCYAAMKKKIYAMGGGSYGKLFESVECYDPRTQQWTAICPLKERRFGAVACGVAMELYVFGGVRSREDAQGSEMVTCKSEFYHDEFKRWIYLNDQNLCIPASSSFVYGAVPIGASIYVIGDLDTGTNYDYVREFKRSTGTWHHTKPLLPSDLRRTGCAALRIANCKLFRLQLQQGLFRIRVHSP
binding [3]: binds
